The assay can be described thus: qHTS Assay for Modulators of Lamin A Splicing. The conditions noted are these: HeLa LMNA splicing GFP/RFP minigene ratio, 48 h. An outline of the steps: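 S3 HeLa cells stably expressing lamin A-EGFP splicing minigene plus DsRed2, 600 cells/well, 48 h compound exposure at 37C. Laser-scanning cytometry; analysed as GFP (500-530 nm)/RFP (575-640 nm) total intensity ratio; 0.5% DMSO vehicle.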
(In qHTS, concentration-response curves come from the screen itself.)

[1] abbreviates: measured here: RFP viability control channel.
Setting [2] is: measured here: GFP splicing reporter channel.

The values that follow come from PubChem BioAssay AID1487 (National Center for Advancing Translational Sciences (NCATS), 2009).

The other results are listed elsewhere or left out. Shown are side measurements of this screen, not its main read-out; they come without a call. Most of these compounds were active or inconclusive in the main read-out, so they are no random draw. Potencies come from curve fits of mixed quality, noted in brackets.

As usually defined, the AC50 is the midpoint of the concentration-response curve, whichever way the signal moves. Regarding `O=C(c1n[nH]c2ccccc12)N1CCN(S(=O)(=O)c2ccc3ccccc3c2)CC1`, under setting [1], the AC50 is 31.6 µM [rising, single point].
Same read-out and setting: as for `Cc1cc(OCC(=O)Nc2ccc(S(=O)(=O)NC3=NCCCCC3)cc2)c(C(C)C)cc1Cl`, the figure is 14.1 µM [rising, partial curve, poor fit].
Regarding `CSc1ccccc1NC(=O)NCCCl`, the AC50 under setting [2] is 0.501 µM [falling, single point].
For `Cn1c(=O)c(/C(N)=N/OC(=O)c2ccccc2)cn(-c2ccccc2)c1=O`, under setting [1], the concentration at half-maximal activity (AC50) is 0.0224 µM [falling, full curve, poor fit].
Turning to `O=C(COc1ccccc1[N+](=O)[O-])N1CCC(Cc2ccccc2)CC1`, under setting [2], the half-maximal activity concentration (AC50) was 2.82 µM [rising, partial curve].
For the molecule `CSc1ccccc1NC(=O)CN(C)Cc1ccc(Br)cc1`, the AC50 under setting [1] was 35.5 µM [rising, single point].
Turning to `O=C(NCCc1ccc(Cl)cc1)C1CCN(S(=O)(=O)c2ccc3[nH]ccc3c2)CC1`, the half-maximal activity concentration (AC50) under setting [2] is 11.2 µM [falling, partial curve].
For the molecule `O=C(COCc1cc(-c2ccc3c(c2)OCO3)on1)Nc1cc(Cl)ccc1O`, the AC50 under setting [2] is 3.55 µM [falling, single point] and the AC50 under setting [1] was 3.55 µM [falling, single point].
For `COc1ccc(CCNC(=O)CCSc2nc(-c3ccco3)cc(C(F)(F)F)n2)cc1`, the AC50 under setting [2] is 35.5 µM [rising, single point].
In the case of `CN1C(=S)N(c2cccnc2)C(=O)/C1=C\c1ccc(N(C)C)cc1`, the AC50 under setting [2] is 20 µM [falling, partial curve, poor fit].
Consider `O=C(c1ccncc1)N1CCN(c2ccc3ccccc3n2)CC1`, for which the half-maximal activity concentration (AC50) under setting [2] was 22.4 µM [falling, single point].
With `CC(=O)c1cccc(NC(=S)NC2CCCCC2)c1`, the AC50 was 6.31 µM [rising, partial curve, poor fit] under setting [2] and 15.8 µM [rising, partial curve, poor fit] under setting [1].
With `Cc1ccc(-c2cn(-c3ccccc3)c3[n+]2CCCS3)cc1`, the AC50 is 7.94 µM [rising, partial curve] under setting [2] and 7.08 µM [rising, full curve] under setting [1].
With `CCCCn1c(Oc2ccc(C(=O)OC)cc2)nc2c1c(=O)n(C)c(=O)n2C`, under setting [2], the concentration at half-maximal activity (AC50) was 12.6 µM [rising, single point].
Regarding `Oc1ccccc1CN(Cc1ccco1)CC(O)COCc1ccc(Cl)cc1` (centres undefined), the AC50 reads like this: under setting [2], 7.08 µM [rising, partial curve, poor fit]; under setting [1], 12.6 µM [rising, partial curve].
Regarding `Cc1c(C(=O)NCc2cccnc2)oc2ccc(S(=O)(=O)N3CCCC(C)C3)cc12` (centres undefined), the AC50 by setting is: under setting [2], 12.6 µM [rising, partial curve]; under setting [1], 14.1 µM [rising, partial curve].
On to `O=C(OCC(=O)N1CCc2ccccc21)c1c2c(nc3ccccc13)CCCCC2`, for which the AC50 was 4.47 µM [rising, partial curve, poor fit] under setting [2] and 22.4 µM [rising, partial curve] under setting [1].
Consider `O=C(OC(C(=O)Nc1cccc(C(F)(F)F)c1)c1ccccc1)C1CCCCC1` (centres undefined), for which the AC50 was 31.6 µM [rising, single point] under setting [2] and 14.1 µM [rising, partial curve, poor fit] under setting [1].
As to `Fc1ccc(-c2nnc(SCc3ncc(-c4ccccc4)o3)n2CC2CCCO2)cc1` (centres undefined), the AC50 under setting [2] was 35.5 µM [rising, single point].
In the case of `Cc1cccc(/C=N/NC(=O)CNc2cccc3ccccc23)n1`, the concentration at half-maximal activity (AC50) was 10 µM [rising, partial curve] under setting [2] and 31.6 µM [rising, single point] under setting [1].
`O=C(O)C1CC(=O)N(C2CCCCC2)C1c1ccccc1` (centres undefined): under setting [1], the AC50 was 0.0447 µM [falling, full curve, poor fit].
On to `CCn1c(SCc2nc3ccccc3[nH]2)nnc1-c1cccs1`, for which the AC50 was 6.31 µM [rising, full curve, poor fit] under setting [2] and 10 µM [rising, partial curve] under setting [1].
With `COc1c(F)c(F)c(C(=O)Nc2ccc(N3CCN(C(C)=O)CC3)c(Cl)c2)c(F)c1F`, the AC50 reads like this: under setting [2], 12.6 µM [rising, partial curve]; under setting [1], 20 µM [rising, single point].
Turning to `COc1ccc(-c2ncn(CCC#N)c2[N+](=O)[O-])cc1`, under setting [1], the concentration at half-maximal activity (AC50) is 11.2 µM [rising, single point].
Take `C#CC(=O)N(c1ccc(OC)cc1OC)C(C(=O)NC1CCCC1)c1cccs1` (centres undefined): the AC50 is 12.6 µM [falling, partial curve, poor fit] under setting [2] and 31.6 µM [falling, single point] under setting [1].
With `COc1cc(CN(C)C)cc(C=O)c1O`, the AC50 under setting [2] was 12.6 µM [falling, partial curve] and the AC50 under setting [1] was 31.6 µM [falling, partial curve, poor fit].
Turning to `c1ccc(CN2CCC(Nc3nc(-c4cccnc4)nc4ccccc34)CC2)cc1`, under setting [2], the AC50 is 14.1 µM [falling, single point].
Consider `O=C(Nc1ccc(Cl)cc1)N(Cc1cccs1)Cc1cccs1`, for which the AC50 is, setting by setting: under setting [2], 35.5 µM [rising, single point]; under setting [1], 35.5 µM [rising, single point].
In the case of `Cc1ccc(CNC(=O)CSc2nc3ccccc3nc2Cc2ccc(C)cc2)cc1`, under setting [2], the concentration at half-maximal activity (AC50) was 8.91 µM [rising, partial curve, poor fit].
Consider `Cc1ccc(NC(=O)CN2C(=O)S/C(=C/c3ccc(-c4cccc(C(=O)O)c4)o3)C2=O)cc1`, for which the AC50 under setting [2] was 0.01 µM [falling, full curve, poor fit].
Turning to `O=C(c1ccc(Cl)c(S(=O)(=O)N2CCCC2)c1)N1CCN(c2ccccc2F)CC1`, the AC50 under setting [2] was 0.01 µM [falling, full curve, poor fit].
Turning to `Cc1c(C(=O)c2ccc(Cl)c(Cl)c2)cnc2cc3c(cc12)OCO3`, the half-maximal activity concentration (AC50) runs as follows: under setting [2], 35.5 µM [rising, single point]; under setting [1], 35.5 µM [rising, single point].
Regarding `COc1ccc(S(=O)(=O)NCC(c2ccco2)S(=O)(=O)c2cccs2)cc1F` (centres undefined), under setting [2], the AC50 was 10 µM [falling, partial curve, poor fit].
Regarding `COc1ccc(-c2nn3c(-c4ccccc4)nnc3s2)cc1OC`, the AC50 is, setting by setting: under setting [2], 11.2 µM [rising, partial curve]; under setting [1], 14.1 µM [rising, partial curve].
